Data as given in patent publication US20230055711A1 (BIOSION, published 2023).
These are yes or no findings as the source states them, for the method shown.

Molecular target: cynomolgus BCMA-his protein (Acro biosystems, Cat #BCA-052H7) (cynomolgus monkey)
Assay: condition: 10000 ng/ml (highest antibody concentration); indirect ELISA, cynomolgus BCMA-his coated

B1: huB1H2-V33 (antibody, human IgG1, kappa, V domains shown)
VH: QVQLVQSGAEVKKPGASVKVSCKASGYTLTNYVMHWVRQAPGQGLEWIGFIIPFNDGTKYNEHFKGRVTITSDTSISTAYMQLSSLRSEDTAVYYCARYDFEGYFDVWGQGTLVTVSS
VL: DIQMTQSPSSLSASVGDRVTITCSASQDITNFLNWYQQKPGKAPKLLIYSTSRLHSGVPSRFSGSGSGTDFTFTISSLQPEDIATYYCQQYSNLPWTFGQGTKVEIKR
notes: Humanized IgG1/kappa; cell supernatant in the Octet assay, purified antibody in Biacore, ELISA and FACS
binding: no binding
